Measured values from the supplement of paper PMC10331698.
± gives the standard deviation of the averaged measurements. Most values lie at the level of the controls, where differences are scatter.

Key:
Experiment in all cases: level (log10 ratio to DMSO vehicle control); higher = higher biomarker level / cell amount than vehicle control
[1] = compound: FC(F)(F)COC(OCC(F)(F)F)OCC(F)(F)F [tris(Trifluoroethoxy)methane] (in DMSO); settings: 2200 nM
Procedure: (§1)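 BioMAP Diversity Plus panel of 12 human primary cell co-culture systems (3C, 4H, LPS, SAg, BT, BF4T, BE3C, CASM3C, HDF3CGF, KF3CT, MyoF, Mphg). Compounds were added 1 h before stimulation and left for 24 h (MyoF 48 h; BT 72 h for soluble read-outs or 6 d for IgG). Biomarkers were read by ELISA, cytotoxicity by SRB, PBMC viability and proliferation by Alamar Blue. Each well value was divided by the mean of 8 DMSO control wells on the same plate and log10 transformed; duplicate blinded samples were tested at 4 concentrations.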

[2] = compound: OCC(F)(F)OC(F)(F)C(F)(F)OC(F)(F)CO [1H,1H,8H,8H-Perfluoro-3,6-dioxaoctane-1,8-diol] (in DMSO); settings: 2200 nM
Procedure: as §1

[3] = compound: FC(F)(F)C(F)(F)CNCC(F)(F)C(F)(F)F [Bis(1H,1H-perfluoropropyl)amine] (in DMSO); settings: 2200 nM
Procedure: as §1

[4] = compound: O=C(O)C(F)(OC(F)(F)C(F)(OC(F)(F)C(F)(OC(F)(F)C(F)(F)C(F)(F)F)C(F)(F)F)C(F)(F)F)C(F)(F)F [Perfluoro-(2,5,8-trimethyl-3,6,9-trioxadodecanoic)acid] (in DMSO); settings: 370 nM
Procedure: as §1

[5] = compound: C=C(C)C(=O)OCCC(F)(F)C(F)(F)C(F)(F)C(F)(F)C(F)(F)C(F)(F)F [6:2 Fluorotelomer methacrylate] (in DMSO); settings: 2200 nM
Procedure: as §1

[6] = compound: CNS(=O)(=O)C(F)(F)C(F)(F)C(F)(F)C(F)(F)C(F)(F)C(F)(F)C(F)(F)C(F)(F)F [N-Methylperfluorooctanesulfonamide] (in DMSO); settings: 2200 nM
Procedure: as §1

[7] = compound: O=C(O)CCC(F)(F)C(F)(F)C(F)(F)F [3:3 Fluorotelomer carboxylic acid] (in DMSO); settings: 2200 nM
Procedure: as §1

[8] = compound: O=C(O)C(F)(F)C(F)(F)C(F)(F)C(F)(F)C(F)(F)F [Perfluorohexanoic acid] (in DMSO)
Procedure: as §1

[9] = compound: OCC(F)(F)C(F)(F)C(F)(F)C(F)F [1H,1H,5H-Perfluoropentanol] (in DMSO); settings: 2200 nM
Procedure: as §1

[10] = compound: OCC(F)(F)C(F)(F)C(F)(F)C(F)(F)C(F)(F)C(F)(F)F [6:1 Fluorotelomer alcohol] (in DMSO); settings: 2200 nM
Procedure: as §1

[11] = compound: O=S(=O)(O)C(F)(F)C(F)(F)C(F)(F)C(F)(F)F [Perfluorobutanesulfonic acid] (in DMSO)
Procedure: as §1

[12] = compound: FC(F)(F)C(F)(F)C(F)(F)C(F)(F)CCI [1H,1H,2H,2H-Perfluorohexyl iodide] (in DMSO); settings: 2200 nM
Procedure: as §1

[13] = compound: O=C(O)C(F)(F)C(F)(F)C(F)(F)C(=O)O [Hexafluoroglutaric acid] (in DMSO)
Procedure: as §1

[14] = compound: OCCCC(F)(F)C(F)(F)C(F)(F)C(F)(F)C(F)(F)C(F)(F)C(F)(F)C(F)(F)F [3-(Perfluorooctyl)propanol] (in DMSO); settings: 2200 nM
Procedure: as §1

[15] = compound: O=C(O)C(F)(F)C(F)(F)C(F)(F)OC(F)(C(F)(F)F)C(F)(F)F [Perfluoro-4-isopropoxybutanoic acid] (in DMSO); settings: 2200 nM
Procedure: as §1

[16] = compound: O=C(O)C(F)(OC(F)(F)C(F)(F)C(F)(F)F)C(F)(F)F [Ammonium perfluoro-2-methyl-3-oxahexanoate] (in Water)
Procedure: as §1

[17] = compound: OCC(F)(F)C(F)(F)C(F)(F)C(F)(F)C(F)(F)C(F)(F)CO [1H,1H,8H,8H-Perfluorooctane-1,8-diol] (in DMSO); settings: 2200 nM
Procedure: as §1

Row | Test System | level (log10) [1] | level (log10) [2] | level (log10) [3] | level (log10) [4] | level (log10) [5] | level (log10) [6] | level (log10) [7] | level (log10) ([8]; 2200 nM) | level (log10) ([8]; 6700 nM) | level (log10) ([8]; 20000 nM) | level (log10) ([8]; 60000 nM) | level (log10) [9] | level (log10) [10] | level (log10) ([11]; 2200 nM) | level (log10) ([11]; 6700 nM) | level (log10) ([11]; 20000 nM) | level (log10) ([11]; 60000 nM) | level (log10) [12] | level (log10) ([13]; 2200 nM) | level (log10) ([13]; 6700 nM) | level (log10) ([13]; 20000 nM) | level (log10) ([13]; 60000 nM) | level (log10) [14] | level (log10) [15] | level (log10) ([16]; 2200 nM) | level (log10) ([16]; 6700 nM) | level (log10) ([16]; 20000 nM) | level (log10) ([16]; 60000 nM) | level (log10) [17]
1 | SAg:CD69 | 0.048 ± 0.016 | -0.0035 ± 0.013 | 0.004 ± 0.0057 | -0.0055 ± 0.0035 | 0.0015 ± 0.0035 | 0.001 ± 0.014 | 0.0115 ± 0.029 | -0.0155 ± 0.0021 | -0.0065 ± 0.00071 | -0.0115 ± 0.021 | -0.0125 ± 0.0092 | -0.0045 ± 0.015 | -0.013 ± 0.0014 | 0.0045 ± 0.025 | -0.008 ± 0.0028 | -0.013 ± 0.017 | -0.043 ± 0.037 | -0.0095 ± 0.0092 | 0.0005 ± 0.0064 | -0.0125 ± 0.0064 | -0.016 ± 0.013 | 0.005 ± 0.0042 | -0.0195 ± 0.0064 | -0.0025 ± 0.016 | -0.003 ± 0.0099 | -0.046 ± 0.0071 | -0.0265 ± 0.019 | -0.0205 ± 0.005 | 0.0135 ± 0.022
2 | SAg:CXCL8/IL-8 | 0.0145 ± 0.037 | 0.0145 ± 0.039 | 0.0285 ± 0.03 | -0.0155 ± 0.059 | 0.0345 ± 0.076 | 0.0025 ± 0.032 | 0.0215 ± 0.064 | -0.008 ± 0.0057 | -0.049 ± 0.052 | -0.009 ± 0.038 | 0.0035 ± 0.084 | 0.008 ± 0.057 | 0.01 ± 0.11 | 0.009 ± 0.023 | -0.0025 ± 0.023 | -0.001 ± 0.014 | 0.049 ± 0.037 | 0.0055 ± 0.0092 | 0.017 ± 0.025 | -0.011 | -0.041 ± 0.042 | 0.0285 ± 0.077 | 0.0695 ± 0.086 | 0 ± 0.04 | 0.117 ± 0.083 | 0.103 ± 0.0085 | 0.099 ± 0.0085 | 0.167 ± 0.047 | 0.015 ± 0.023
3 | SAg:CXCL9/MIG | 0.006 ± 0.017 | -0.004 ± 0.0085 | -0.0015 ± 0.0092 | 0.0075 ± 0.019 | -0.002 ± 0.025 | 0.0115 ± 0.013 | 0.005 ± 0.013 | 0.0045 ± 0.0021 | -0.0005 ± 0.0064 | -0.001 ± 0.0085 | 0.0055 ± 0.005 | 0.008 ± 0.0014 | 0.0095 ± 0.012 | -0.0145 ± 0.0064 | -0.0105 ± 0.00071 | 0.002 ± 0.014 | -0.002 ± 0.02 | 0.0055 ± 0.00071 | -0.0025 ± 0.015 | -0.0015 ± 0.00071 | -0.012 ± 0.0042 | -0.0005 ± 0.005 | -0.0175 ± 0.011 | 0.0045 ± 0.0021 | 0.0125 ± 0.011 | -0.006 ± 0.0085 | 0.001 ± 0.014 | 0.001 ± 0.028 | 0.0025 ± 0.005
4 | SAg:PBMC Cytotoxicity | -0.0005 ± 0.0021 | -0.0135 ± 0.026 | 0.001 ± 0.018 | 0.019 ± 0.058 | 0.0245 ± 0.026 | -0.0255 ± 0.049 | -0.02 ± 0.024 | 0.004 ± 0.064 | -0.0155 ± 0.046 | 0.002 ± 0.0028 | 0.009 ± 0.073 | 0.009 ± 0.023 | -0.002 ± 0.031 | 0.004 ± 0.0028 | -0.029 ± 0.038 | -0.0315 ± 0.036 | 0.023 ± 0.024 | 0.043 ± 0.035 | 0.004 ± 0.0071 | 0.0035 ± 0.0078 | 0.014 ± 0.0042 | -0.005 ± 0.058 | -0.0215 ± 0.011 | 0.0085 ± 0.026 | -0.006 ± 0.023 | -0.011 ± 0.013 | -0.024 ± 0.013 | -0.0035 ± 0.0064 | -0.0135 ± 0.012
5 | SAg:Proliferation | 0.0085 ± 0.029 | 0.0045 ± 0.015 | 0.011 ± 0.023 | -0.03 ± 0.089 | -0.0425 ± 0.093 | 0.033 ± 0.065 | 0.007 ± 0.047 | 0.036 ± 0.011 | 0.0065 ± 0.011 | 0.003 ± 0.021 | 0.027 ± 0.0042 | -0.022 ± 0.0099 | 0.002 ± 0.03 | -0.013 ± 0.059 | -0.0295 ± 0.11 | -0.0385 ± 0.023 | 0.039 ± 0.017 | 0.01 ± 0.0057 | 0.051 ± 0.024 | -0.019 ± 0.0071 | -0.0445 ± 0.033 | -0.0275 ± 0.013 | -0.0035 ± 0.019 | 0.006 ± 0.0057 | 0.021 ± 0.033 | -0.0005 ± 0.028 | -0.043 ± 0.028 | -0.0265 ± 0.049 | -0.0015 ± 0.011
6 | SAg:SRB | -0.0075 ± 0.0078 | -0.0145 ± 0.0064 | 0.001 ± 0.0028 | 0.004 ± 0.014 | 0.0015 ± 0.016 | -0.009 ± 0.02 | -0.0035 ± 0.0064 | -0.0015 ± 0.016 | -0.0055 ± 0.0035 | -0.0135 ± 0.0035 | -0.001 ± 0.0028 | -0.006 ± 0.0042 | 0.004 ± 0.0042 | 0.0135 ± 0.018 | 0.0005 ± 0.0092 | -0.0085 ± 0.0092 | -0.0055 ± 0.013 | -0.0105 ± 0.005 | -0.0035 ± 0.0092 | -0.0055 ± 0.00071 | -0.0105 ± 0.016 | -0.0035 ± 0.016 | 0.006 ± 0.023 | -0.0105 ± 0.0078 | -0.0145 ± 0.005 | -0.019 ± 0.0042 | -0.01 ± 0.0014 | -0.0285 ± 0.0021 | 0.0115 ± 0.015
7 | lMphg:CCL2/MCP-1 | 0.0235 ± 0.037 | 0.01 ± 0.05 | -0.003 ± 0.0085 | -0.0125 ± 0.0092 | -0.009 ± 0.0071 | -0.002 ± 0.045 | 0.0175 ± 0.043 | -0.001 ± 0.0042 | -0.0065 ± 0.028 | -0.021 ± 0.0099 | -0.014 ± 0.041 | -0.023 ± 0.051 | -0.0095 ± 0.012 | 0.006 ± 0.0028 | 0.0105 ± 0.0021 | 0.0105 ± 0.0078 | 0.0145 ± 0.025 | -0.0195 ± 0.033 | -0.026 ± 0.024 | -0.046 ± 0.052 | -0.0305 ± 0.037 | -0.0235 ± 0.011 | 0.017 ± 0.04 | -0.001 ± 0.031 | 0.034 ± 0.042 | 0.0165 ± 0.005 | 0.0125 ± 0.012 | 0.038 ± 0.027 | 0.013 ± 0.044
